From US20090275504A1
These are yes or no findings as the source states them, for the method shown. In cells and extracts the contact can be indirect. Some results given as binding are weak or reduced against the parent protein; the word gives no strength.

The chains behind the UniProt entries cited, without tags or fusion partners. Where a name states a change or a piece, a line headed by the entry shows the natural chain unless it says otherwise.
UniProt Q8NBP7: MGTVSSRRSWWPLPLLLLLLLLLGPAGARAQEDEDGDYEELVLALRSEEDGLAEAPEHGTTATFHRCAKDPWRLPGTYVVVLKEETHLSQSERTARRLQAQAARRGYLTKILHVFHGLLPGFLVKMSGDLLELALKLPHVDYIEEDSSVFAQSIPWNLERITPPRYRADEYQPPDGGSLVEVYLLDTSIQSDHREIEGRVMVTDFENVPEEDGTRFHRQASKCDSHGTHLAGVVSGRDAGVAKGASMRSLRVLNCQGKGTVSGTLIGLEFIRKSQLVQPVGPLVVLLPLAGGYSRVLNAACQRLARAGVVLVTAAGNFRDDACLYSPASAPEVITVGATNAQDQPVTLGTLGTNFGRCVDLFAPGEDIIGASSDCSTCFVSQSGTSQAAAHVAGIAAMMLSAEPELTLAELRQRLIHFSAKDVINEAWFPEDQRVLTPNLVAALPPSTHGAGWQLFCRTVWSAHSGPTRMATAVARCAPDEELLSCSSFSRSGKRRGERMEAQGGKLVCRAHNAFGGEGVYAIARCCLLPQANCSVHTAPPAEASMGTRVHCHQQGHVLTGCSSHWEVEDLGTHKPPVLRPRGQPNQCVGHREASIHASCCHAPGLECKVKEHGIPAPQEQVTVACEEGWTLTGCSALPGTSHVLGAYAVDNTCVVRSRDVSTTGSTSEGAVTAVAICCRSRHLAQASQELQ

Target: mature PCSK9 (after autocatalytic cleavage at Gln152), secreted from HepG2 cells (human) (UniProt Q8NBP7)
Assay: co-immunoprecipitation from 32P-labelled HepG2 media, SDS-PAGE, phosphorimaging

binding: binds
Substance: PCSK9 propeptide (prodomain), secreted from HepG2 cells (from UniProt Q8NBP7 31-152)
